These are yes or no findings as the source states them, for the method shown. In cells and extracts the contact can be indirect. Some results given as binding are weak or reduced against the parent protein; the word gives no strength. Tags and fused reporters may be left off the sequences shown.
How the values were obtained:
Flag-MMS22L (human) = molecular target: T1, Flag-MMS22L (human) (UniProt Q6ZRQ5); assay: co-IP; Flag antibody IP from HU-treated HeLa cells stably expressing Flag-TONSL or Flag-MMS22L; immunoblotting; cells without a Flag-tagged protein as controls
T1 sequence: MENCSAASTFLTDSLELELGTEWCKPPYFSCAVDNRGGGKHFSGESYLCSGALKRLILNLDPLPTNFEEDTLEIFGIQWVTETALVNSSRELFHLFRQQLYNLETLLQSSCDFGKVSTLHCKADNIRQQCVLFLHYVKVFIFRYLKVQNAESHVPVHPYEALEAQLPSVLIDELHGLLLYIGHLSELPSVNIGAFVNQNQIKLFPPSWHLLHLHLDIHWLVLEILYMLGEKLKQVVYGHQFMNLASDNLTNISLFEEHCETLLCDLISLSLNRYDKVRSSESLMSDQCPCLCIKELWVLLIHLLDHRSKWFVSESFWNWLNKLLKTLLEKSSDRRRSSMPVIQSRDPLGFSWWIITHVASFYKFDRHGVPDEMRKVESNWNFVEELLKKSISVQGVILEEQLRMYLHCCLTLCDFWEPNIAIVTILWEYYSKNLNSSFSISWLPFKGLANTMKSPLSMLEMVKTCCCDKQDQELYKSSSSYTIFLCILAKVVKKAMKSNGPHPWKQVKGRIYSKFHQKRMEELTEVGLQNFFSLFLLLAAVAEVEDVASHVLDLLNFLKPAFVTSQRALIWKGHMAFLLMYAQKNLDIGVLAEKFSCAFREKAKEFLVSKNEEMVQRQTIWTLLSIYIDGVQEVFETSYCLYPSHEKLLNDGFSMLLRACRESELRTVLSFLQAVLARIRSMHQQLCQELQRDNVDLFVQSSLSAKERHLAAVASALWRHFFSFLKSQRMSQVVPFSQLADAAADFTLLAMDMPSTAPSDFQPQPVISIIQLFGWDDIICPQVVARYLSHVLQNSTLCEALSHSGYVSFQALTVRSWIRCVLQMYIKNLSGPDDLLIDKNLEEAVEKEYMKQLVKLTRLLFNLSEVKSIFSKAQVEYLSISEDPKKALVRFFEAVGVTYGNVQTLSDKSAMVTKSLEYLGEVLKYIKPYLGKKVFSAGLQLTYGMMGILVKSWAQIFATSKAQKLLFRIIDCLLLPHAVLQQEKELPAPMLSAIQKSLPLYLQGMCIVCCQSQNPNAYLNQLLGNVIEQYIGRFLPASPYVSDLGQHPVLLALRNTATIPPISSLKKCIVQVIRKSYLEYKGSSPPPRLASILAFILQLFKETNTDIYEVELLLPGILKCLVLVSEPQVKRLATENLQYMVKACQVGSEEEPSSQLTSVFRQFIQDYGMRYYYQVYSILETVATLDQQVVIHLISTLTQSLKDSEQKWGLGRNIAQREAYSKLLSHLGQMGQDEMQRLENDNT

Flag-TONSL (human) = molecular target: T2, Flag-TONSL (human) (UniProt Q96HA7); assay: as above
T2 sequence: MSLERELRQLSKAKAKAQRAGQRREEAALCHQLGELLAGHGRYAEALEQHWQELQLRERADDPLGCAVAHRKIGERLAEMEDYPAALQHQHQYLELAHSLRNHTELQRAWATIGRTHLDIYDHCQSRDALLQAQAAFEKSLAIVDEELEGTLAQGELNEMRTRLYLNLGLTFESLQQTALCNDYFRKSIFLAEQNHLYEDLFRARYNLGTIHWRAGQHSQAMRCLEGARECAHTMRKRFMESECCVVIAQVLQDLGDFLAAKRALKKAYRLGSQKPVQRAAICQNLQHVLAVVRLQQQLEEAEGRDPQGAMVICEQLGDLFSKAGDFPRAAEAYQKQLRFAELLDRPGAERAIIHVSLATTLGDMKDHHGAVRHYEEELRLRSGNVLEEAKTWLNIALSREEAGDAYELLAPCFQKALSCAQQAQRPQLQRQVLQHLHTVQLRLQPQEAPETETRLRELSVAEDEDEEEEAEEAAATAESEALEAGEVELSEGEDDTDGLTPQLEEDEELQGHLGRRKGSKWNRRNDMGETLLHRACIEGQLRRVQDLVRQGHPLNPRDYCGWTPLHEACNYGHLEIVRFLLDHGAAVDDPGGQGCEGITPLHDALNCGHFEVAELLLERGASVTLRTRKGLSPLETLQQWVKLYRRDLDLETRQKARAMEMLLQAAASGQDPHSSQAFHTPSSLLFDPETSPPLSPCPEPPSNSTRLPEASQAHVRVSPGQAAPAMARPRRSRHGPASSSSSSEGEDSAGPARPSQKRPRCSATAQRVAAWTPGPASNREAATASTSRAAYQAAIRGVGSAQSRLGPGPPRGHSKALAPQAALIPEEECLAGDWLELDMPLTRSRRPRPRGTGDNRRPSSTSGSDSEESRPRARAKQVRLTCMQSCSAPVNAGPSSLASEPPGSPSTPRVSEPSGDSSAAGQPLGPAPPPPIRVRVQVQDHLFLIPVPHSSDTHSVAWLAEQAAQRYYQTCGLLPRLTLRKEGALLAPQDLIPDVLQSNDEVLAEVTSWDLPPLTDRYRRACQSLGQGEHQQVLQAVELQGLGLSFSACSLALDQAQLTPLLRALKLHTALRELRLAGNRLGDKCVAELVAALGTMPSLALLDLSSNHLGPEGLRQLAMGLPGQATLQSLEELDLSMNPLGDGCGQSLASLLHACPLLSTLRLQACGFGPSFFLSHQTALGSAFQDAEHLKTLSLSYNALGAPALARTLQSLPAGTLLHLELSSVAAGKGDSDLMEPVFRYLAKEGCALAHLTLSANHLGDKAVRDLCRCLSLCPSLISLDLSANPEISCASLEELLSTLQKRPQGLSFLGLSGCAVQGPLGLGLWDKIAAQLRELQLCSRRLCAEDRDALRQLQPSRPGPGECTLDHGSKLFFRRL

B1: FANCA (protein, UniProt O15360 1-1455)
chain: MSDSWVPNSASGQDPGGRRRAWAELLAGRVKREKYNPERAQKLKESAVRLLRSHQDLNALLLEVEGPLCKKLSLSKVIDCDSSEAYANHSSSFIGSALQDQASRLGVPVGILSAGMVASSVGQICTAPAETSHPVLLTVEQRKKLSSLLEFAQYLLAHSMFSRLSFCQELWKIQSSLLLEAVWHLHVQGIVSLQELLESHPDMHAVGSWLFRNLCCLCEQMEASCQHADVARAMLSDFVQMFVLRGFQKNSDLRRTVEPEKMPQVTVDVLQRMLIFALDALAAGVQEESSTHKIVRCWFGVFSGHTLGSVISTDPLKRFFSHTLTQILTHSPVLKASDAVQMQREWSFARTHPLLTSLYRRLFVMLSAEELVGHLQEVLETQEVHWQRVLSFVSALVVCFPEAQQLLEDWVARLMAQAFESCQLDSMVTAFLVVRQAALEGPSAFLSYADWFKASFGSTRGYHGCSKKALVFLFTFLSELVPFESPRYLQVHILHPPLVPGKYRSLLTDYISLAKTRLADLKVSIENMGLYEDLSSAGDITEPHSQALQDVEKAIMVFEHTGNIPVTVMEASIFRRPYYVSHFLPALLTPRVLPKVPDSRVAFIESLKRADKIPPSLYSTYCQACSAAEEKPEDAALGVRAEPNSAEEPLGQLTAALGELRASMTDPSQRDVISAQVAVISERLRAVLGHNEDDSSVEISKIQLSINTPRLEPREHMAVDLLLTSFCQNLMAASSVAPPERQGPWAALFVRTMCGRVLPAVLTRLCQLLRHQGPSLSAPHVLGLAALAVHLGESRSALPEVDVGPPAPGAGLPVPALFDSLLTCRTRDSLFFCLKFCTAAISYSLCKFSSQSRDTLCSCLSPGLIKKFQFLMFRLFSEARQPLSEEDVASLSWRPLHLPSADWQRAALSLWTHRTFREVLKEEDVHLTYQDWLHLELEIQPEADALSDTERQDFHQWAIHEHFLPESSASGGCDGDLQAACTILVNALMDFHQSSRSYDHSENSDLVFGGRTGNEDIISRLQEMVADLELQQDLIVPLGHTPSQEHFLFEIFRRRLQALTSGWSVAASLQRQRELLMYKRILLRLPSSVLCGSSFQAEQPITARCEQFFHLVNSEMRNFCSHGGALTQDITAHFFRGLLNACLRSRDPSLMVDFILAKCQTKCPLILTSALVWWPSLEPVLLCRWRRHCQSPLPRELQKLQEGRQFASDFLSPEAASPAPNPDWLSAAALHFAIQQVREENIRKQLKKLDCEREELLVFLFFFSLMGLLSSHLTSNSTTDLPKAFHVCAAILECLEKRKISWLALFQLTESDLRLGRLLLRVAPDQHTRLLPFAFYSLLSYFHEDAAIREEAFLHVAVDMYLKLVQLFVAGDTSTVSPPAGRSLELKGQGNPVELITKARLFLLQLIPRCPKKSFSHVAELLADRGDCDPEVSAALQSRQQAAPDADLSQEPHLF
- binding (Flag-MMS22L (human)): binds
- binding (Flag-TONSL (human)): binds
